A: 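Whole-cell assay for inhibitors of Mycobacterium tuberculosis growth, labelled Cornell in the record; the read-out is not stated. The concentration is filed as 10 mM, unlikely as a test dose, so the dose is not known. The record gives no direction; compounds strong in two other growth screens of this library score well above the rest, so higher reads as stronger inhibition. About 53,000 compounds were tested under these conditions; 1.7% (about 900) showed 50% or more at least once.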
B: 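Assay on Mycobacterium tuberculosis, filed only as a heat shock assay from Cornell; the read-out is not stated. The concentration is filed as 10 mM, unlikely as a test dose, so the dose is not known. Direction is inferred from retests: higher values go with stronger inhibition. Size under these conditions: about 69,000 compounds, about 930 of them at 50% or above in at least one test.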

Results are given as percent effect. The controls that fix the scale are not given in the record; negative values are as filed. The compounds are a random part of those screened. A dash means the value is not listed here; it may have been measured.

SMILES	A	B
Cc1cnn(C2CCCN(C(=O)Cc3c(C)nn(C)c3C)C2)c1 (configuration not stated)	-13.45	-8.276
O=C(NC1CCCN(c2ncccn2)C1)c1cn2ccccc2n1 (configuration not stated)	-0.6005	-6.764
CC(Cn1cccn1)NCc1csc(Cc2ccccc2)n1 (configuration not stated)	-	103.2
O=C(Cc1csc(-c2nnc[nH]2)n1)N1CCCC1Cn1cccn1 (configuration not stated)	-	8.991
Cc1n[nH]c(C)c1CCNC(=O)C1CCCN(CC(N)=O)C1 (configuration not stated)	35.14	13.63
CCSc1ncc(Cl)c(C(=O)NC(CCSC)C(=O)O)n1 (configuration not stated)	-0.32	-1.167
CCCC(NC(=O)c1cscc1C)c1nnn[nH]1 (configuration not stated)	-31.84	6.129
Cc1cc(C(=O)CN2CCN(c3cnccn3)CC2)c(C)n1C(C)C	13.49	-23.02
COCc1cncc2c1CCN(Cc1cccs1)C2.O=C(O)C(F)(F)F.O=C(O)C(F)(F)F	-8.604	-19
O=C1Nc2ccccc2CC12CCCN2Cc1ccc(F)cc1 (configuration not stated)	-	-14.12
CN(Cc1cc(C[C@@H]2C[C@H](N)C2(C)C)no1)c1ccccc1	-	-9.711
CN1CCC(N2CCOC3(CCCC3)C2)C1=O (configuration not stated)	-	-27.86
Cc1cccc(C(CNC(=O)NCc2cc[nH]n2)N2CCOCC2)c1 (configuration not stated)	-	18.02
Cc1ccc(S(=O)(=O)Nc2cccnc2O)cc1C	-38.51	9.676
Cc1cc(CNCC2(O)CCOCC2)ccc1F	-	-187.3
O=C(O)C(F)(F)F.[H][C@@]12C[C@@H](C(=O)Nc3cnccn3)CN(Cc3ccsc3)[C@]1([H])CCO2	10.87	-23.53
O=C(NCc1nncn1-c1ccccc1)C1CC1	-	4.009
Cc1cc2nc(-c3ccccc3)cc(NCC3CCCOC3)n2n1 (configuration not stated)	12.21	20.05
COc1cccc(CNC(=O)CC2CSc3nc(C)c(C)c(=O)n32)c1 (configuration not stated)	24.27	9.618
CNC(=O)CN1CCC(NC(=O)C(C)Oc2ccccc2C#N)CC1 (configuration not stated)	-	9.267
Cc1ccc(N(CC(=O)N2CCCCC2)C(=O)C2COCCO2)cc1 (configuration not stated)	-15.71	3.032
Cc1cccc(NCC(=O)Nc2cc(F)ccc2F)c1C(N)=O	-3.141	6.699
O=C(O)C(F)(F)F.O=C(O)C(F)(F)F.[H][C@@]12CN(CC)C[C@]1([H])[C@H](OC)CCN2c1ncc(F)cn1	-24.85	-22.77
COCC1CN(C(=O)Cc2ccsc2)Cc2c1cnn2C (configuration not stated)	-18.12	-4.567
COC(=O)CN1CCCN(C(=O)CCOc2cccc(C)c2C)CC1	-	-17.41
CN(CCNC(=O)N1CCN(Cc2ccon2)CC1)C1CCCC1	-10.19	0.8905
Cc1cc(NC(=O)NC2CCCc3c2cnn3CCO)n(C)n1 (configuration not stated)	-31.17	-30.33
COCC1CN(S(=O)(=O)Cc2ccccc2)Cc2c1cnn2C.O=C(O)C(F)(F)F (configuration not stated)	30.23	-29.43
CCNC(=O)NC(=O)CN1CCOC(c2ccc(Br)cc2)C1 (configuration not stated)	9.628	-12.05
Cc1ccc(CN2C(=O)OCC2CO)c2ccccc12 (configuration not stated)	30.63	7.132
Cc1ccc(C)c2c(C)c(C(=O)NCCCn3ccnn3)[nH]c12	-	-16.85
O=C1C(NCc2nnc3n2CCCC3)CCCN1c1ccccc1 (configuration not stated)	-	20.24
Cl.Cn1cc([C@@H]2CN(S(=O)(=O)c3ccccc3F)C[C@H]2N)c2ccncc21	-24.27	-1.741
CCOC(=O)CN1CCC2(CC1)CC(=O)c1ccc(OC)cc1O2	9.279	-24.9
CCn1cc(NC(=O)C(C)n2ncc(Cl)c2C)c(C(=O)OC)n1 (configuration not stated)	22.24	2.253
CCN(CC)C(=O)CN(C)C1CCc2ccccc21 (configuration not stated)	-	8.155
Cc1cccc(CN2CCC3(CCCN(C(=O)c4ccoc4)C3)C2=O)n1.O=C(O)C(F)(F)F (configuration not stated)	-0.9068	10.85
Cc1nc(NC2CCCC2)cc(C2CCN2C(=O)c2ccccn2)n1 (configuration not stated)	-60.39	-9.873
O=C(NCCc1ccn(-c2ccccc2)n1)N1CCCC(CO)C1 (configuration not stated)	-	2.727
CCCS(=O)(=O)N1CCC2(CCC(=O)N(CCc3cccnc3)C2)CC1	-	-3.943
[H][C@@]12CN(Cc3nccs3)C[C@]1([H])CN(C(=O)C1CCOC1)C2 (some centres not stated)	-3.533	-7.022
CCN(C(c1cccnc1)c1cc(C)cc(C)c1)S(C)(=O)=O (configuration not stated)	23.24	-10.89
CSc1ccccc1C(=O)N(C)Cc1nncn1C(C)C	-	-33.16
O=C(COc1coc(CN2CCOCC2)cc1=O)Nc1ccc(Cl)cc1	-3.276	4.114
CN(C)Cc1ccc(CNC(=O)NCC2(C)CCCS2)cc1 (configuration not stated)	-10.11	1.781
Cc1nsc(N2CCCN(c3ccc(C#N)cn3)CC2)n1	29.47	-0.9809
COc1ccc(C(C)NCCc2ccc(NC(C)=O)cc2)cc1F (configuration not stated)	-10.02	11.62
O=C(O)C(F)(F)F.O=C(O)C(F)(F)F.[H][C@@]12CN(Cc3cccs3)C[C@]1([H])OCCN2c1ccc(C)nn1	-22.94	-31.99
Cc1noc(C)c1CN(C)C(=O)C1CCN(S(N)(=O)=O)CC1	2.06	-10.46
O=C(NC[C@@H]1CCCO1)c1cccnc1N1CCCC1c1ccccn1 (some centres not stated)	9.307	26
Cc1cc(NC(=O)CCN2CCn3c(C)nnc3C2)no1	13.05	10.57
O=C(NCC1(O)CCC1)NC(c1cc(F)ccc1F)C1CC1 (configuration not stated)	-	-32.04
O=C(O)C(F)(F)F.[H][C@@]12CCN(C(=O)c3cnn(C)c3)[C@@]1([H])CCN2Cc1cccc(C#N)c1	3.306	-13.73
CCCc1cc(CN(C)C2CC(C)(C)NC(C)(C)C2)n[nH]1	-20.74	19.13
Cc1cc(C(=O)N(C)Cc2cnn(C)c2)c(NC(=O)C(C)(C)C)s1	6.86	-16.49
CC(C)c1cc(C2CCCN2C(=O)CN2C(=O)CCNC2=O)no1 (configuration not stated)	11.22	1.025
CCN1C(=O)CCC12CCCN(S(=O)(=O)c1cccc(C)c1)CC2 (configuration not stated)	-	0.6813
CCC(C)n1cnc(S(=O)(=O)N(C)C)c1 (configuration not stated)	12.7	-9.3
O=C(O)C(F)(F)F.c1csc(CN2CCn3c(Cn4cncn4)cnc3C2)n1	-	-82.66
O=C(O)C(F)(F)F.O=C(O)C(F)(F)F.[H][C@@]12C[C@@H](OCc3cccnc3)CN1CCN(C(=O)c1ccnnc1)C2	19.22	-1.051
[H][C@@]12CS(=O)(=O)C[C@]1([H])N(C(=O)CSc1ccccn1)CCN2CCO	-12.09	-0.3839
Cc1ccc(C(=O)N2CCC(Oc3ccc(F)cc3F)CC2)c(=O)[nH]1	-	0.2294
c1cc2c(cc1C1CCCN1Cc1nnnn1C1CC1)OCCO2 (configuration not stated)	-11.98	-8.636
CN(C)C(=O)COCc1cncc2c1CCN(C1CCOCC1)C2.O=C(O)C(F)(F)F.O=C(O)C(F)(F)F	-4.627	31.38
Cc1c(C(=O)N2CCC(C(=O)c3nc4ccccc4s3)CC2)cnn1C	60.09	0.4703
Cn1ccnc1CN1CCCC(CO)(CCc2ccccc2)C1 (configuration not stated)	-	3.016
COCCCNc1c(-c2ccc(Cl)cc2)c(=O)c1=O	-	7.474
O=C(O)C(F)(F)F.[H][C@@]12COC[C@@H](C(=O)N3CCCCO3)[C@]1([H])CN(C1CCCC1)C2	-11.13	-25.46
Cc1cnn(CCNCc2csc(-c3ncccn3)n2)c1	-	-10.75

The last 9 entries again:

SMILES	A	B
[H][C@@]12CS(=O)(=O)C[C@]1([H])N(C(=O)CSc1ccccn1)CCN2CCO	-12.09	-0.3839
Cc1ccc(C(=O)N2CCC(Oc3ccc(F)cc3F)CC2)c(=O)[nH]1	-	0.2294
c1cc2c(cc1C1CCCN1Cc1nnnn1C1CC1)OCCO2 (configuration not stated)	-11.98	-8.636
CN(C)C(=O)COCc1cncc2c1CCN(C1CCOCC1)C2.O=C(O)C(F)(F)F.O=C(O)C(F)(F)F	-4.627	31.38
Cc1c(C(=O)N2CCC(C(=O)c3nc4ccccc4s3)CC2)cnn1C	60.09	0.4703
Cn1ccnc1CN1CCCC(CO)(CCc2ccccc2)C1 (configuration not stated)	-	3.016
COCCCNc1c(-c2ccc(Cl)cc2)c(=O)c1=O	-	7.474
O=C(O)C(F)(F)F.[H][C@@]12COC[C@@H](C(=O)N3CCCCO3)[C@]1([H])CN(C1CCCC1)C2	-11.13	-25.46
Cc1cnn(CCNCc2csc(-c3ncccn3)n2)c1	-	-10.75

Source: ChEMBL document CHEMBL3988442, “University of Dundee, Small-Polar-MMV Screening Library” (2021).